Measured values reported in PubChem BioAssay AID2685 (National Center for Advancing Translational Sciences (NCATS), 2010).
The list shows a part of the results. The main result of the screen is listed elsewhere. These columns were measured beside it and carry no call. The list favours compounds with an active or inconclusive main result. Words in brackets tell the shape of the fitted curve; partial curves, single points and poor fits give uncertain potencies.

Test: qHTS Assay for Lipid Storage Modulators in Drosophila S3 Cells;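 as to cell number change: cells counted by Cell Tracker Red CMTPX staining in the red channel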
Conditions: BODIPY lipid droplet fluorescence, 18-24 h; for cell number change: measured here: cell count max response, cells fed with added oleic acid
Outline: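 Laser-scanning cytometry quantifies lipid droplet accumulation (500–530 nm total intensity; droplet/cell object ratio) in oleic acid-fed (400 uM added) Drosophila S3 cells treated with a concentration series. 20 uM Triacsin C defined 100% inhibition.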

[1] = measured here: cell number channel AC50, cells fed with added oleic acid
[2] = measured here: lipid fluorescence (Fed channel) AC50, cells fed with added oleic acid

## O=c1c(C(c2ccc(F)cc2)c2c(O)nc3n(c2=O)CCS3)c(O)nc2n1CCS2
  cell number change: 40.8%
[1]
  AC50: 29.1 µM [rising, single point]

## N=C1C(c2ccccc2)=C(O)CN1c1ccccc1N1CCOCC1
  cell number change: -4.45%

## CC1CCN(CC(O)COCCC23CC4CC(CC(C4)C2)C3)CC1 (configuration not stated)
  cell number change: -10.2%
[2]
  AC50: 6.51 µM [falling, single point]

## CC(C)NS(=O)(=O)c1ccc2c(c1)NCC2
  cell number change: 50%
[1]
  AC50: 18.4 µM [rising, single point]
[2]
  AC50: 0.231 µM [falling, full curve, poor fit]

## Cc1c(C(=O)NCCC2=CCCCC2)sc2ncnc(N3CCCCC3C)c12 (configuration not stated)
  cell number change: 2.69%

## CS(=O)(=O)N(CC(=O)Nc1ccccc1C(=O)N1CCOCC1)c1ccc2c(c1)OCO2
  cell number change: 5.7%
[2]
  AC50: 3.66 µM [falling, full curve]

## Cc1ccc(C)c(OCCC(=O)N2CCN(S(=O)(=O)c3ccc([N+](=O)[O-])cc3)CC2)c1
  cell number change: -15.4%
[2]
  AC50: 29.1 µM [falling, single point]

## CC(=O)Nc1ccc(NC(=O)CSc2ncc(C(=O)Nc3ccc(Cl)cc3)c(=O)n2C)cc1
  cell number change: 60%
[1]
  AC50: 2.59 µM [rising, partial curve]

## CN(CC(=O)NCCC1=CCCCC1)S(=O)(=O)c1ccc2c(c1)c(=O)n(C)c(=O)n2C
  cell number change: -15%
[2]
  AC50: 1.03 µM [falling, full curve]

## CCN(CC)C(=O)C1CC(c2ccc(OC)cc2)=NO1 (configuration not stated)
[1]
  AC50: 6.51 µM [falling, single point]
[2]
  AC50: 0.58 µM [rising, single point]

## CC(C)(C)C(=O)CSc1ncnc2c1cnn2-c1ccccc1
  cell number change: 18.5%
[2]
  AC50: 2.91 µM [rising, full curve, poor fit]

## O=C(CSc1nnc(-c2ccc(O)cc2)o1)NNC(=O)c1ccncc1
  cell number change: 16.7%
[1]
  AC50: 0.00517 µM [rising, full curve, poor fit]

## COc1cccc(NC(=O)C2C3CCC4C(CCC32)C4(Cl)Cl)c1 (configuration not stated)
[2]
  AC50: 0.651 µM [falling, single point]

## CC1CCCN(C(c2ccccc2)c2sc3ncnn3c2O)C1 (configuration not stated)
  cell number change: -6.76%
[2]
  AC50: 0.00461 µM [falling, full curve, poor fit]

## CC(C(=O)N1CCOCC1)c1ccc([N+](=O)[O-])cc1 (configuration not stated)
  cell number change: 5.46%
[1]
  AC50: 1.03 µM [falling, full curve]

## COc1cccc(NC(=S)NNC(=O)Cn2nc(C(F)(F)F)cc2C)c1
[2]
  AC50: 20.6 µM [rising, single point]

## O=C1C2C3C=CC(C3)C2C(=O)N1c1ccc(S(=O)(=O)Nc2nccs2)cc1 (configuration not stated)
  cell number change: 10.6%
[2]
  AC50: 6.51 µM [rising, partial curve, poor fit]

## CC(NC(=O)/C(=C\c1ccco1)NC(=O)c1ccco1)C(=O)O (configuration not stated)
  cell number change: 5.03%
[2]
  AC50: 25.9 µM [rising, single point]

## CCCC(=O)NCCc1cc2ccc(C)c(C)c2[nH]c1=O
[1]
  AC50: 4.11 µM [rising, partial curve, poor fit]
[2]
  AC50: 4.11 µM [rising, partial curve, poor fit]

## COc1ccc(Cc2nc3ccc(C(=O)NCC4COCCO4)cc3o2)cc1 (configuration not stated)
  cell number change: 29.8%

## O=C1Nc2cccnc2N(C(=O)CCl)c2ccccc21
  cell number change: -12.5%

## CC(C)NC(=O)C1CCCN(c2nnc(-n3cccc3)s2)C1 (configuration not stated)
  cell number change: -6.02%

## COc1cccc(/C(O)=C2\C(=O)C(=O)N(c3ccccn3)C2c2cccc(OC)c2OC)c1 (configuration not stated)
[2]
  AC50: 0.206 µM [rising, full curve, poor fit]

## CC(NC(=S)NNS(=O)(=O)c1cccc([N+](=O)[O-])c1)c1ccccc1 (configuration not stated)
  cell number change: 8.83%
[2]
  AC50: 10 µM [falling, partial curve]

## CC(C)N1CCc2c(sc(NC(=O)c3ccc(C(=O)c4ccccc4)cc3)c2C(N)=O)C1
  cell number change: -32.6%
[1]
  AC50: 32.6 µM [falling, single point]

## COc1cc(NC(=O)NC2Cc3ccccc3C2)cc(OC)c1
  cell number change: 13.9%
[1]
  AC50: 2.31 µM [rising, partial curve, poor fit]
[2]
  AC50: 29.1 µM [falling, partial curve]

## CS/C(=N\S(=O)(=O)c1cccs1)Nc1ccc(N2CCOCC2)cc1
  cell number change: -31.5%
[1]
  AC50: 4.61 µM [falling, full curve]
[2]
  AC50: 6.51 µM [falling, full curve, poor fit]

## CC(C(=O)N1CCc2ccccc21)n1cnc2c1c(=O)n(C)c(=O)n2C (configuration not stated)
  cell number change: -32.5%
[1]
  AC50: 29.1 µM [falling, single point]

## COCCNC(=O)C(NC(=O)C1CCCCC1)C12CC3CC(CC(C3)C1)C2 (configuration not stated)
  cell number change: -36.9%
[2]
  AC50: 32.6 µM [falling, partial curve, poor fit]

## Cc1cc(C=O)c(C)n1-c1sc2c(c1C(=O)O)CCCC2
  cell number change: -16%
[2]
  AC50: 0.0184 µM [falling, full curve, poor fit]

## Cc1cccc(CN2CCc3c([nH]c4ccccc34)C2)c1
  cell number change: -32.4%
[1]
  AC50: 23.1 µM [falling, single point]

## Cc1cc(C)cc(NC(=S)/C(=C(\[O-])c2ccc(Cl)cc2Cl)[n+]2ccccc2)c1
  cell number change: 29.5%
[2]
  AC50: 23.1 µM [rising, single point]

## CCC[N+]1(CC#CCC(c2ccccc2)c2ccccc2)CCCCC1
  cell number change: -8.33%
[2]
  AC50: 0.13 µM [falling, full curve, poor fit]

## O=C1c2ccc(-c3ccc4c(c3)C(=O)N(CCO)C4=O)cc2C(=O)N1CCO
  cell number change: -20.7%
[2]
  AC50: 0.517 µM [falling, full curve]

## CCC(C)NS(=O)(=O)c1ccc(OCC(=O)N2CCCC2)cc1 (configuration not stated)
  cell number change: 15.7%
[2]
  AC50: 5.17 µM [rising, full curve]

## COc1ccc(-n2nc3c(N)n[nH]c3cc2=O)cc1
  cell number change: 18.2%
[1]
  AC50: 3.26 µM [rising, single point]

## Fc1cccc(CSc2nc3ccncc3[nH]2)c1
  cell number change: 36.2%
[1]
  AC50: 9.2 µM [rising, partial curve]
[2]
  AC50: 1.64 µM [rising, partial curve]

## CN(Cc1c(C(=O)N/N=C/c2cccc(O)c2)nnn1-c1nonc1N)c1ccccc1
  cell number change: -13.8%
[2]
  AC50: 1.64 µM [falling, full curve]
